Experimental findings from PubChem BioAssay AID2685 (National Center for Advancing Translational Sciences (NCATS), 2010) are described below.

This assay is described as follows: qHTS Assay for Lipid Storage Modulators in Drosophila S3 Cells.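 For cell number change: cells counted by Cell Tracker Red CMTPX staining in the red channel.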 Particulars: BODIPY lipid droplet fluorescence, 18-24 h; for cell number change: measured here: cell count max response, cells fed with added oleic acid. The gist of the method:
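Laser-scanning cytometry quantifies lipid droplet accumulation (500–530 nm total intensity; droplet/cell object ratio) in oleic acid-fed (400 uM added) Drosophila S3 cells treated with a concentration series. 20 uM Triacsin C defined 100% inhibition.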
For orientation: In qHTS, concentration-response curves come from the screen itself.

Setting [1] is: measured here: lipid fluorescence (Fed channel) AC50, cells fed with added oleic acid.
[2] abbreviates: measured here: cell number channel AC50, cells fed with added oleic acid.

The other results are listed elsewhere or left out. The main result of the screen is listed elsewhere. These columns were measured beside it and carry no call. The list favours compounds with an active or inconclusive main result. Words in brackets tell the shape of the fitted curve; partial curves, single points and poor fits give uncertain potencies.

As a reminder, the AC50 is the concentration at which the activity in the assay is half-maximal. Lower therefore signals greater potency. Consider `OCc1cc(CO)c(O)c(CCc2ccccc2)n1`, for which the cell number change is -0.117%. The AC50 under setting [1] is 0.00461 µM [rising, full curve, poor fit].

As to `CSc1cccc(NC(=S)N(CCN(C)C)C(C)c2ccncc2)c1` (stereo not given), the cell number change is -9.53%. The AC50 under setting [1] was 20.6 µM [rising, single point].

Take `CC1=CCP(=O)(c2ccccc2)C1` (stereo not given): the cell number change was -5.24%. The concentration at half-maximal activity (AC50) under setting [1] is 23.1 µM [falling, single point].

In the case of `CCOc1ccccc1CN1CCC(n2nccc2NC(=O)CCc2ccccc2)CC1`, the cell number change came to 58.1%. Moreover, the AC50 under setting [2] is 18.4 µM [rising, single point]. Further, the AC50 under setting [1] was 29.1 µM [rising, single point].

In the case of `CC(C)NCC(O)Cn1c2c(c3ccccc31)CCc1c-2cnn1-c1ccccc1` (stereo not given), the cell number change was -27.8%. In addition, the AC50 under setting [1] was 16.4 µM [falling, single point].

As to `COc1ccc(N2C(=O)CC(Sc3nnc(-c4ccccc4)o3)C2=O)cc1` (stereo not given), the cell number change is -67.6%. Also, under setting [2], the AC50 was 29.1 µM [falling, single point]. Also, under setting [1], the AC50 is 29.1 µM [falling, single point].

With `O=C(c1ccc(Cn2cc(Br)cn2)cc1)N1CCN(c2ccccc2)CC1`, under setting [2], the AC50 is 3.66 µM [rising, single point].

Consider `CC(=O)N1CCCN(Cc2cn(-c3cc(C)ccc3C)nc2-c2ccccc2)CC1`, for which the cell number change was -5.45%. Besides, under setting [2], the AC50 is 0.651 µM [falling, full curve, poor fit].

Consider `CCOC(=O)C(Sc1ncn[nH]1)c1ccccc1` (stereo not given), for which the cell number change is -7.31%. Besides, the AC50 under setting [1] was 0.0058 µM [falling, full curve, poor fit].

For the molecule `O=C1OCCN1C(=O)[C@H]1[C@H](c2ccc(F)cc2)C(c2ccc(F)cc2)=NN1c1ccc(Br)cc1`, the cell number change was -2.27%. The concentration at half-maximal activity (AC50) under setting [1] is 29.1 µM [rising, single point].

Consider `O=C(CC1CCCCC1)Nc1ncn[nH]1`, for which the cell number change is 14%. Further, the AC50 under setting [1] was 5.8 µM [falling, partial curve].

`CN(C)C(=O)N1CCC(C(=O)NCc2ccc(F)cc2)CC1`: the cell number change was -2.98%. The AC50 under setting [2] is 0.103 µM [falling, single point].

On to `COc1ccc(CN2CCc3ccccc3C2)c(OC)c1OC`, for which the cell number change is -127%. Moreover, the AC50 under setting [2] is 23.1 µM [falling, single point].

As to `CCOc1ccc(NC(=O)Nc2cc(C)on2)cc1`, the cell number change is 6.88%. Moreover, the AC50 under setting [1] was 10.3 µM [rising, partial curve].

As for `COc1ccc(C)cc1NC(=O)c1cnc2sccn2c1=O`, under setting [1], the AC50 was 0.13 µM [rising, full curve, poor fit].

Turning to `Cc1cc(C)cc(NC(=O)CS(=O)(=O)c2cccc3nsnc23)c1`, the cell number change was determined as 24.6%.

For `CC(=O)Nc1ccc(NC(=O)c2cc(S(=O)(=O)N3CCCCC3)ccc2C)cc1`, the cell number change was determined as 29%. In addition, the AC50 under setting [1] is 16.4 µM [rising, partial curve].

Turning to `COc1cccc(CC(NC(C)=O)C(=O)NC2CCN(C(=O)C3CCCCC3)CC2)c1OC` (stereo not given), the cell number change was 3.23%. In addition, under setting [1], the AC50 is 0.82 µM [rising, single point].

For the molecule `CCC(=O)NCCCc1nc2ccccc2n1Cc1ccccc1F`, the AC50 under setting [1] was 6.51 µM [falling, single point].

On to `COc1ccc(S(=O)(=O)N2CCCCCC2)cc1C(=O)N(C)Cc1cccs1`, for which the cell number change is -0.879%. Further, under setting [1], the AC50 was 20.6 µM [falling, single point].

`O=C(N/N=C/c1ccc([N+](=O)[O-])o1)c1ccncc1`: the cell number change was -24.6%. Further, the concentration at half-maximal activity (AC50) under setting [1] was 16.4 µM [falling, partial curve].

With `O=C(O/N=C\c1ccc(N2CCOCC2)c([N+](=O)[O-])c1)c1ccc(F)cc1`, the cell number change is -12.6%. Moreover, the AC50 under setting [1] is 0.731 µM [rising, full curve, poor fit].

`Cc1cccc(C2Nc3cccc4cccc(c34)N2)c1`: the cell number change was -7.21%. The AC50 under setting [1] was 0.58 µM [falling, single point].

With `O=C(CNC(=O)c1ccc(F)cc1)NCc1ccccn1`, the cell number change was -6.32%. For the same molecule, the AC50 under setting [1] was 1.3 µM [rising, partial curve].

Regarding `Cc1ccc(-c2n[nH]c(=S)n2/N=C/c2ccc(C)s2)cc1`, the cell number change is -47.5%. The AC50 under setting [2] was 23.1 µM [falling, partial curve]. The AC50 under setting [1] is 25.9 µM [falling, partial curve].

In the case of `CCCCC(=O)N(c1ccc(OC)cc1)C1C=CS(=O)(=O)C1` (stereo not given), the AC50 under setting [1] is 0.116 µM [falling, full curve, poor fit].

`CN1CCN(CC(=O)Nc2ccc(S(=O)(=O)N(C)C)cc2)CC1`: the cell number change is -31.8%. For the same molecule, under setting [2], the AC50 was 29.1 µM [falling, single point]. The AC50 under setting [1] was 29.1 µM [falling, single point].

As to `Cc1nc2ccccc2nc(C)c1=NOCc1ccccc1Cl`, the cell number change turned out to be 8.21%. Under setting [1], the AC50 was 8.2 µM [rising, partial curve].

Consider `CC1CCN(C2(O)C(=O)Nc3ccc(Cl)cc32)CC1` (stereo not given), for which the cell number change was 13.2%. The AC50 under setting [1] is 18.4 µM [rising, single point].

In the case of `O=C(c1ccc(=O)[nH]c1)N1CCN(S(=O)(=O)c2ccccc2)CC1`, under setting [1], the AC50 is 8.2 µM [falling, partial curve].

Take `CCN(CC(=O)Nc1ccccc1OC)C(=O)c1cc(-c2ccccc2)nn1-c1ccccc1`: the AC50 runs as follows: under setting [2], 3.66 µM [falling, partial curve]; under setting [1], 4.61 µM [falling, single point].

For `CC(Sc1nnc(-c2cc3ccccc3o2)n1-c1ccccc1)C(=O)O` (stereo not given), the cell number change is -24.4%. Moreover, under setting [2], the AC50 was 2.91 µM [falling, single point]. Besides, the AC50 under setting [1] is 3.26 µM [falling, single point].

Consider `O=C(c1ccc(-c2ccc([N+](=O)[O-])cc2)o1)N1CCCC(C(F)(F)F)C1` (stereo not given), for which the AC50 under setting [2] is 0.731 µM [rising, full curve].

As for `Cc1[nH]n(-c2ccccc2)c(=O)c1C(c1ccc(C(=O)O)cc1)c1c(C)[nH]n(-c2ccccc2)c1=O`, the cell number change was 4.16%. For the same molecule, the half-maximal activity concentration (AC50) under setting [1] is 8.2 µM [rising, partial curve, poor fit].

With `Cc1cc(F)ccc1S(=O)(=O)N1CCCOC1CNC(=O)C(=O)NCc1cccnc1` (stereo not given), under setting [1], the AC50 was 29.1 µM [rising, single point].

In the case of `O=S(=O)(c1ccc(NCCOc2ccccc2)nc1)N1CCCC1`, the cell number change stood at 1.1%. In addition, the AC50 under setting [1] is 29.1 µM [rising, single point].

On to `Cc1ccc(NC(=O)C(C)NC(=O)OCc2ccccc2)cc1C` (stereo not given), for which the cell number change is -38.4%. For the same molecule, the AC50 under setting [2] was 25.9 µM [falling, single point].

Turning to `COc1ccccc1NC(=O)N1CCC(C(=O)c2ccc(Cl)cc2)CC1`, the cell number change turned out to be 31.1%. Under setting [2], the AC50 is 0.13 µM [rising, full curve, poor fit]. Further, the half-maximal activity concentration (AC50) under setting [1] is 0.116 µM [rising, full curve, poor fit].

In the case of `Cc1cccc(NC(=O)CSc2cccc3cccnc23)c1C`, the cell number change was -12%.

For the molecule `CCc1cccc(CC)c1N(COC)C(=O)Cn1ccccc1=N`, the cell number change came out at 5.94%. Besides, under setting [2], the AC50 is 0.58 µM [falling, full curve, poor fit]. Under setting [1], the AC50 is 2.06 µM [falling, partial curve].

For the molecule `C=C(C(=O)c1ccccc1)C(C)CC(=O)c1ccccc1` (stereo not given), the cell number change was -14.2%. Moreover, the AC50 under setting [1] was 29.1 µM [falling, single point].

In the case of `Cc1ccc(/C(N)=N/OC(=O)C23CC4CC(CC(C4)C2)C3)cc1`, the cell number change is -40.9%. Besides, under setting [2], the AC50 is 3.66 µM [falling, full curve, poor fit].

`CCC(C)n1c(SCC(=O)NC2CCS(=O)(=O)C2)nc2ccccc2c1=O` (stereo not given): the cell number change was -5.02%.

`Cc1ccc(NC(=O)Nc2ccon2)cc1Cl`: the cell number change is -37.1%. In addition, the AC50 under setting [2] is 32.6 µM [falling, single point]. In addition, the AC50 under setting [1] is 29.1 µM [falling, single point].

As to `COc1ccc(CNC(=O)[C@]2(C)CCC[C@@]3(C)C4CC[C@@]5(C)C[C@]4(CCC32)CC5=O)cc1` (stereo not given in full), the cell number change was -10%. Also, the AC50 under setting [2] was 0.731 µM [falling, single point].

As for `O=C(C1CCCCN1S(=O)(=O)c1ccccc1[N+](=O)[O-])N1CCOCC1` (stereo not given), the cell number change was -39.4%. The AC50 under setting [2] was 32.6 µM [falling, single point].

For `COc1cccc(CNCc2ccc3c(c2)OCO3)c1`, the cell number change was -5.22%. Under setting [1], the AC50 is 29.1 µM [rising, single point].

Turning to `CCN(CC)c1c([N+](=O)[O-])c(=O)n(CC)c2ccccc12`, the cell number change is -14.9%. The AC50 under setting [1] is 0.651 µM [falling, full curve, poor fit].

For `O=C(COc1ccc2c(c1)OCO2)Nc1nnc(Cc2ccccc2)s1`, the cell number change was found to be 30.8%. Under setting [2], the AC50 is 5.8 µM [rising, partial curve].

Regarding `COc1ccc(NC(=O)CN(C)CC(=O)Nc2sc3c(c2C#N)CCC3)cc1`, the cell number change is 2.88%. Besides, the AC50 under setting [1] was 29.1 µM [rising, single point].

Turning to `Cc1cc(Cl)ccc1NC(=O)CCCN1C(=O)CCC1=O`, the AC50 was 0.259 µM [rising, partial curve, poor fit] under setting [2] and 0.411 µM [rising, partial curve, poor fit] under setting [1].

As for `COCCNC(=O)CN1C(=O)CC(C)(C)S(=O)(=O)c2ccccc21`, the cell number change turned out to be 5.39%.

As for `CC1=C(C(=O)NCc2ccccc2)C(c2ccccc2OCC(N)=O)NC(=O)N1` (stereo not given), the cell number change is -93.5%. Moreover, the AC50 under setting [2] is 32.6 µM [falling, single point].

For the molecule `COc1cccc(CNC(=O)C2Cc3cc(S(=O)(=O)N4CCCC4)ccc3N2C(C)=O)c1OC` (stereo not given), the AC50 under setting [1] was 0.58 µM [rising, single point].

Take `O=C(N/N=C/c1c[nH]c2ccccc12)c1cc2ccccc2o1`: the cell number change was 8.08%. Besides, under setting [1], the AC50 was 2.91 µM [rising, single point].

`Cc1cccc(C(=O)N2CCCC(CCC(=O)N3CCN(c4ccccn4)CC3)C2)c1` (stereo not given): the cell number change was -10.5%. Moreover, under setting [1], the AC50 was 0.13 µM [rising, full curve, poor fit].

As for `O=C(CCN1C(=O)[C@@H]2Cc3ccccc3CN2C1=O)N[C@@H](C(=O)O)c1ccccc1`, the cell number change amounted to 17.2%. The AC50 under setting [1] was 16.4 µM [rising, single point].

In the case of `Cc1ccc(S(=O)(=O)NCC(=O)OCC(=O)NCc2cccs2)cc1`, the cell number change was determined as 0.509%. Moreover, the AC50 under setting [1] was 29.1 µM [rising, single point].

As to `COC(=O)c1cccc(N(CC(=O)NC2CCCC2)C(=O)CNC(=O)c2cccs2)c1`, the cell number change is -32.9%. Also, under setting [2], the AC50 is 6.51 µM [falling, partial curve, poor fit]. In addition, the AC50 under setting [1] is 5.62 µM [falling, single point].
